Reference: US4859664A, “Derivatives of 2,3,4,5,6,7-hexahydro-2,7-methano-1,5-benzoxazonines and -1,4-benzoxazonines, processes for their production and their use as pharmaceuticals” (priority 1986, dated 1989)
Read-outs that look alike come from different tables or passages of the source.

Type: in vivo, male NMRI mice
Details: for % inhibition action ± SEM with naloxone: with naloxone hydrochloride 20 mg./kg. s.c.
Experimental: […]. They were given a standard feed and water ad libitum up to the commencement of the experiments.
The test compounds were administered in a volume of 10 ml./kg./body weight per mouse. As carrier, there was used physiological sodium chloride solution or a suspension of 0.5% tragacanth in physiological sodium chloride solution.
The experimental results are given as average values with a mean error of the average value (x±S.E.M.). The ED50 values were calculated according to Litchfield and Wilcoxon (J. Pharmacol. Exp. Ther., 96, 99/1949). The compounds were thereby tested in 4 dosages (p≤0.5).
For the significance calculation, there was used Student's t test (see Angewandte Statistik, pub. Stringer Verlag, Berlin, Heidelberg, 242/1983), as well as the range sum test of Mann and Withney (Ann. Math. stat., 50, 1818/1947).
1.1. In the acetic acid writhing test (see R. Koster et al., Fed. proc., 18, 412/1954), the typical stretching movements referred to as "writhing", were produced by the intraperitoneal administration of a 0.6% acetic acid solution. 30 minutes previously, the substance to be tested was administered subcutaneously (s.c.) or orally ([…].) to the animals. 3 minutes after administration of the acetic acid solution, the total number of stretching movements in a period of time of 10 minutes was ascertained. From the decrease of the stretching reactions due to the action of the test compound in comparison with non-pretreated control groups, there was determined the percentage inhibition action.
1.2. Naloxone-antagonistic action in the writhing test.
20 Minutes before the subcutaneous administration of the test compounds, the animals were given 20 mg./kg. naloxone hydrochloride subcutaneously. The further carrying out of the experiments was as described above.

## COc1cccc(C2(O)CCCCC2CN(C)C)c1 (centres unmarked) [tramadol, 2-[(dimethylamino)-methyl]-1-(3-methoxyphenyl)-cyclohexanol, reference compound]
10 mg/kg s.c.
  % inhibition action ± SEM with naloxone: 30.4 ± 9.9%
  % inhibition action ± SEM without naloxone: 69.4 ± 5.5%
20 mg/kg s.c.
  % inhibition action ± SEM with naloxone: 60.5 ± 2.9%
  % inhibition action ± SEM without naloxone: 91.2 ± 2.0%
After naloxone pretreatment, Student's t test
  significance of difference of inhibitory action with and without naloxone: statistically significantly lower (t=8.41, p≤0.01)
